No constants are given. Whether binding was seen depends on the method and setting.
Legend:
Test in all cases: two-hybrid
TLR1 TIR domain = biological target: T1, TLR1 TIR domain (UniProt Q15399)
T1 sequence: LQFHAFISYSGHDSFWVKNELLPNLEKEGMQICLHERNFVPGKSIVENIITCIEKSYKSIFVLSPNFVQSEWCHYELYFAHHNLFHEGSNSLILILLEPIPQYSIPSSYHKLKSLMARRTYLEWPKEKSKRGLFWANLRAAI

Sequences of proteins named here, by UniProt entry; tags and fusion partners are left off. Residues count along the entry.
UniProt Q9BXR5, residues 632-775: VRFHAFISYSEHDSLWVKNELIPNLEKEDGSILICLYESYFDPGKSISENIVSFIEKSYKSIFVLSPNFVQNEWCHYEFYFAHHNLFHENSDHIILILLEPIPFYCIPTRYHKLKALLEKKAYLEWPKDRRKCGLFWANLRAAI
UniProt O60603, residues 639-782: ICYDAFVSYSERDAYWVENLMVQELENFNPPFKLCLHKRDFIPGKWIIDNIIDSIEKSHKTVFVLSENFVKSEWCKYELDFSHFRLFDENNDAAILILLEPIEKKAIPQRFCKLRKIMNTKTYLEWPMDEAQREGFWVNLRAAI
UniProt O15455, residues 754-897: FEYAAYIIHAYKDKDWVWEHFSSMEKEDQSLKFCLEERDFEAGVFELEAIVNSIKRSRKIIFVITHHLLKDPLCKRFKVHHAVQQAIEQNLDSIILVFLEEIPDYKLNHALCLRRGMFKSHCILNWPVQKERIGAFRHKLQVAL
UniProt O00206, residues 672-815: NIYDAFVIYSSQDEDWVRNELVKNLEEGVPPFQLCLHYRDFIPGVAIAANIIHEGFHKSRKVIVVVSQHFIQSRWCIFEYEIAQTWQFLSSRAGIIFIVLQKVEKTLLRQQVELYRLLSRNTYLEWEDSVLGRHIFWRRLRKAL
UniProt O60602, residues 691-836: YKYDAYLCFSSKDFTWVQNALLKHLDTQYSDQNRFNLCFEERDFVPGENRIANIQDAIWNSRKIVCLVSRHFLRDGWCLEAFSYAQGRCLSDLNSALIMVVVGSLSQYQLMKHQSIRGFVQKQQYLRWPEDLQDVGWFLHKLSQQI
UniProt Q9Y2C9, residues 640-781: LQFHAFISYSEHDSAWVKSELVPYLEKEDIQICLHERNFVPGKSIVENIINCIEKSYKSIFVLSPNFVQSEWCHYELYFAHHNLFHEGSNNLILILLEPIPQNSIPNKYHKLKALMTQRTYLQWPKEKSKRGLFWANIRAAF
UniProt Q9NYK1, residues 889-1033: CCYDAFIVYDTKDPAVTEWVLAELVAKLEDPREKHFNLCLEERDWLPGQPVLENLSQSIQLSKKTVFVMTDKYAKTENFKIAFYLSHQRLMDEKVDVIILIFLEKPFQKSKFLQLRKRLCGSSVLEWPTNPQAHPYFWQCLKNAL
UniProt Q9NR97, residues 878-1022: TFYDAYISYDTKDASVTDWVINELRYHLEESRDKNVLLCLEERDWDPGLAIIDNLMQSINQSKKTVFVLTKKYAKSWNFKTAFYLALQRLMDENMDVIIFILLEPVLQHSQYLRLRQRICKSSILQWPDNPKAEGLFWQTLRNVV
UniProt Q86XR7: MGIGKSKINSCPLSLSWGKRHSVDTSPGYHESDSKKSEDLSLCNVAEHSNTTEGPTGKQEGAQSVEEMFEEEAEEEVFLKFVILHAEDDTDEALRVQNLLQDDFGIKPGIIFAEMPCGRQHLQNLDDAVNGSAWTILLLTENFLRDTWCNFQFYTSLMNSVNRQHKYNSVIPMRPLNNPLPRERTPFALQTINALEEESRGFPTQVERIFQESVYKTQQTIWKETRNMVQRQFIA
UniProt Q8YF53: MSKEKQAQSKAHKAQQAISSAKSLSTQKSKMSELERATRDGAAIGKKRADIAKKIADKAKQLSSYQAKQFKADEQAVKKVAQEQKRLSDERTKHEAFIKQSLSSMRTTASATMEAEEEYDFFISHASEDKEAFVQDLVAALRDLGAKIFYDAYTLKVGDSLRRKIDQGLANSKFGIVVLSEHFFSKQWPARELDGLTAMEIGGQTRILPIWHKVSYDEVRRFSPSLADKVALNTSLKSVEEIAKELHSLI

TLR10 TIR domain = TLR10 TIR domain (UniProt Q9BXR5)
TLR2 TIR domain = TLR2 TIR domain (UniProt O60603)
TLR3 TIR domain = TLR3 TIR domain (UniProt O15455)
TLR4 TIR domain = TLR4 TIR domain (UniProt O00206)
TLR5 TIR domain = TLR5 TIR domain (UniProt O60602)
TLR6 TIR domain = TLR6 TIR domain (UniProt Q9Y2C9)
TLR7 TIR domain = TLR7 TIR domain (UniProt Q9NYK1)
TLR8 TIR domain = TLR8 TIR domain (UniProt Q9NR97)
TLR9 TIR domain = biological target: T2, TLR9 TIR domain (UniProt Q9NR96)
T2 sequence: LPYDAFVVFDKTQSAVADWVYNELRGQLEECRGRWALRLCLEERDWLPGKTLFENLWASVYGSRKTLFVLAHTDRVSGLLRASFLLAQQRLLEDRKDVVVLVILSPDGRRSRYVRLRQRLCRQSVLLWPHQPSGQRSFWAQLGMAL

TRAM = TRAM (UniProt Q86XR7)

Measured: binding

BtpA (B. melitensis 16 M, BMEI1674) (from UniProt Q8YF53 1-250)
no binding: all assays above
